Laboratory results taken from patent US20170198354A1, “METHODS OF GLUCOCORTICOID THERAPY AND DETERMINING RESPONSIVENESS THEREOF” (YISSUM RESEARCH DEVELOPMENT COMPANY OF THE HEBREW …, priority 2014, published 2017).
Entries after “also recorded” stand apart in the source; their conditions may differ. For at least one compound, name, drawing or mass did not settle the structure.

Tests used:
Type in all cases: cell-based, human
[1] = test system: MOLT-4, CUTLL, BJAB and SUD-136 cells; test: Apoptosis by PI uptake (flow cytometry), GC-resistant cell lines
Excerpt: (§1) Cell lines models of human T-cell acute lymphocytic leukemia (T-ALL) and Burkitt's lymphoma (BL), including the glucocorticoid (GC) sensitive cells represented by CEM-C7H2 (T-ALL, the sensitive sub-clone of CCRF-CEM), LOUCY (T-ALL) and DAUDI (BL), and the GC resistant cells represented by MOLT-4 (T-ALL), CUTLL (T-ALL), BJAB (BL) and SUD-136 (BL) were used. At least three kinds of cells were used in each type of cancer in order to minimize cell type specific variables. In addition, two types of malignancies were examined, T-ALL to represent leukemia behavior and BL to represent lymphoma behavior. Bone marrow cells were collected from normal donors and ALL patients. All experiments with human cells were approved by an institutional Helsinki committee and the Ministry of Health. Dexamethasone (DEX), RU486, Propidium iodide (PI), puromycin and Tri-reagent were purchased from sigma and TransIT-LT1 from Mirus.
(§2) Cells were treated with 100 nM Dex for 72 hrs. Percent apoptotic cells was determined by PI-uptake as measured in a FACS Calibur flow cytometer (BD).

miR-103 and PANK3 = test: Relative quantification of miR-103 and PANK3
[2] = test system: CEM-C7H2, LOUCY and DAUDI cells; test: Apoptosis by PI uptake (flow cytometry), GC-sensitive cell lines
Excerpt: as §1, §2

BJAB cells = test: Total cell number / viability by flow cytometry; conditions: miR-103 overexpressing BJAB
Description: FIGS. 6A-E: miR-103 inhibits cellular proliferation. (A) Relative Quantification of miR-103 in BM cells of […]. (B) CEM-C7H2, BJAB and miR-103 overexpressing BJAB cells were treated with Dex (24 hrs), labeled with BRDU (1 hr), fixed and analyzed by flow cytometry. (C) miR-103 overexpressing BJAB, SUD-136, DAUDI and MOLT-4 cells were treated with Dex for 72 hrs. Cellular proliferation was measured by BRDU staining. (D) miR-103 overexpressing BJAB cells were treated with Dex and/or RU486 for 72 hrs. Cell viability was determined by flow cytometry. (E) miR-103 overexpression or sponged cells were treated with Dex and then subjected to western blot analysis using anti Cyclin E1 and CDK2 antibodies. C=Untreated, D=Dex-treated.

miR-17˜92a = test: miR-17~92a cluster expression (RQ / fold change)
Description: RNA of cell samples was extracted by Tri-reagent. 1 μg of each sample was sequenced on an Illumina Genome Analyzer as described by Son et al, Curr Protoc Microbiol; Chapter 1: Unit 1E 4.
Total RNA was isolated using miRNeasy mini kit (QIAGEN). For Syber green assay, precipitated RNA samples were treated with Poly A Tailing kit (Ambion). c-DNA was prepared by M-MLV reverse transcriptase (Invitrogen). q-PCR amplification of mRNA was operated by Platinum SYBER Green (Invitrogen) with the following primers: FKBP5 5′ […] 3′ and 5′ […] 3′, SGK1 5′ […] 3′ and 5′ […] 3′. For Taqman based PCR, c-DNA was prepared by Taqman MicroRNA Reverse Transcription Kit (Applied Biosystem). q-PCR was performed using TaqMan 2× Universal PCR Master Mix (Applied Biosystem).

DVL1 and β-Catenin = DVL1 and β-Catenin expression (western blot); conditions: CEM-C7H2 and MOLT-4
Description: (§3) Total lysate of 10^6 cells was prepared in 50 μl protein sample buffer (PSB) ×1.5. The following antibodies were used for immuno-blotting: anti-β-Catenin and anti-GR (BD Transduction Laboratories); anti-BIM (Calbichem); anti-CDK2, anti-c-Myb, anti-DVL1 and anti-c-Myc (Santa Cruz Biotechnology); anti-cycline E1 (Cell Signaling Technology); and anti-a-Tubulin (Sigma). Immune-blots images are presented by Image Lab 3.0 software. Specific bands were cropped by transferring images to Adobe Photoshop CS5.

[3] = test system: CEM-C7H2, BJAB, SUD-136, DAUDI and MOLT-4 cells; test: BRDU incorporation cellular proliferation assay; conditions: GC-sensitive CEM-C7H2 and miR-103 overexpressing cells
Excerpt: A BrdU Cell Proliferation Assay kit (Exalpha Biological, Inc) or a BrdU Flow Kit (BD Pharmingen) were used to determine cellular proliferation.

c-Myb = c-Myb expression (western blot); conditions: CEM-C7H2
Description: as §3

c-Myc = c-Myc expression (western blot / RQ)
Description: as §3
(§4) Total RNA was isolated using miRNeasy mini kit (QIAGEN). For Syber green assay, precipitated RNA samples were treated with Poly A Tailing kit (Ambion). c-DNA was prepared by M-MLV reverse transcriptase (Invitrogen). q-PCR amplification of mRNA was operated by Platinum SYBER Green (Invitrogen) with the following primers: FKBP5 5′ […] 3′ and 5′ GTCTCCAATCATCGGCGTT 3′, SGK1 5′ […] 3′ and 5′ […] 3′. For Taqman based PCR, c-DNA was prepared by Taqman MicroRNA Reverse Transcription Kit (Applied Biosystem). q-PCR was performed using TaqMan 2× Universal PCR Master Mix (Applied Biosystem).

BIM = BIM expression (western blot / mRNA RQ)
Description: as §3, §4

PANK3-GRE = test: Chromatin immunoprecipitation of PANK3-GRE; conditions: CEM-C7H2
Description: The EpiTech ChIP OneDay kit (Qiagen) was employed. IP antibodies used were: Rabbit-IgG (Qiagen), anti-GR (cell signaling) and anti-H3K4me1 (abcam). qRT-PCR was performed by syber green enzyme with the following primers: PANK3-GRE, GAPDH positive control and MYOD1 negative control (Qiagen). GR-GRE primers were planned as follow: Fw-5′ […] 3′ and 5′ […] 3′. % Enrichment was calculated according to the formula: 2̂(CT Mean(Input)−CT Mean of (Interested fraction))*100.

FKBP1 and SGK1 = test: Relative quantification of GC-regulated genes (SYBR green qPCR); conditions: CEM-C7H2 and MOLT-4
GR = GR expression (western blot / mRNA RQ)
Description: as §3, §4

miRNAs = test: Deep sequencing of small RNAs
Description: RNA of cell samples was extracted by Tri-reagent. 1 μg of each sample was sequenced on an Illumina Genome Analyzer as described by Son et al, Curr Protoc Microbiol; Chapter 1: Unit 1E 4. Data analysis was performed by a miRNAkey application Ronen et al., Bioinformatics; 26(20):2615-2616.

CC#C[C@]1(O)CC[C@H]2[C@@H]3CCC4=CC(=O)CCC4=C3[C@@H](c3ccc(N(C)C)cc3)C[C@@]21C [RU486]
GCIA with GR inhibition ([1]; GC-resistant BJAB sensitized by miR-103 transfection, Dex and RU486 72 hrs): prevented GCIA
Dex-induced miR-103 and PANK3 upregulation with GR inhibition (miR-103 and PANK3; cells treated with Dex and RU486): blocked both miR-103 and PANK3 upregulation
GCIA with GR inhibition ([2]; GC-sensitive CEM-C7H2, Dex and RU486 72 hrs): prevented GCIA
Reduction of total cell number when GR inhibited (BJAB cells; Dex and RU486 72 hrs): abolished

C[C@@H]1C[C@H]2[C@@H]3CCC4=CC(=O)C=C[C@]4(C)[C@@]3(F)[C@@H](O)C[C@]2(C)[C@@]1(O)C(=O)CO [Dex, Dexamethasone]
miR-20a level after Dex (miR-17˜92a; BJAB, SUD-136 and DAUDI): did not change
miR-17˜92a expression following Dex treatment (miR-17˜92a; CEM-C7H2): downregulated
miR-20a level after Dex (miR-17˜92a; GC-sensitive cells): concomitantly downregulated
miR-17˜92a expression following Dex treatment (miR-17˜92a; resistant MOLT-4): almost unaffected
Apoptosis after Dex treatment ([1]; GC-resistant MOLT-4, CUTLL, BJAB, SUD-136, Dex 72 hours): survived
DVL1 and β-Catenin expression after Dex (DVL1 and β-Catenin): unaffected
Effect of adding Dex on reduced proliferation [3]: augmented this effect
c-Myb expression after Dex (c-Myb): significant ablation
c-Myc protein level after Dex (c-Myc; CEM-C7H2): downregulated
c-Myc protein level after Dex (c-Myc; MOLT-4): almost not affected
miR-103 and PANK3 levels following Dex treatment (miR-103 and PANK3; CEM-C7H2): both upregulated
miR-103 and PANK3 levels following Dex treatment (miR-103 and PANK3; other cells): remained unchanged
BIM protein level after Dex (BIM; CEM-C7H2): upregulation
BIM mRNA after Dex (BIM; DAUDI cells): upregulated significantly
BIM expression after Dex (BIM; GC-sensitive cells): upregulated
BIM protein level after Dex (BIM; MOLT-4): almost not affected
BIM mRNA after Dex (BIM; the other GC-resistant cells (BJAB, SUD-136)): slightly
Apoptosis after Dex treatment ([2]; GC-sensitive CEM-C7H2, LOUCY, DAUDI, Dex 72 hours): induced apoptosis
PANK3-GRE enrichment, anti-H3K4me1, in Dex-treated cells (PANK3-GRE): nearly fivefold
Regulation of FKBP1 and SGK1 following exposure to Dex (FKBP1 and SGK1): up regulation
GR protein level after Dex (GR; CEM-C7H2): upregulation; also recorded: upregulated
GR mRNA level upon Dex treatment (GR; GC-resistant cells): unchanged
GR protein level after Dex (GR; GC-resistant cells): downregulated
GR mRNA level upon Dex treatment (GR; GC-sensitive cells): upregulated
GR protein level after Dex (GR; MOLT-4): almost not affected
Total cell number in the culture with Dex (BJAB cells; Dex 72 hrs): further decreased
Expression level of miR-103, miR-15b, miR-181a, let-7f, miR-16, miR-30e, miR-30d, miR-15b*, miR-21, miR-186, miR223 (miRNAs; CEM-C7H2, Dex 24 hrs): elevated
Modulation of the same miRNAs by Dex (miRNAs; MOLT-4, Dex-treated): not significantly modulated
